Results are given in words; binding and its absence hold for the method and conditions named. Binding seen in cells or lysates may run through a third protein. Some entries that bind do so weakly or less than the wild type.
Target: PP1^H66K-PNUTS fusion: Avitag PP1α (1-304, H66K) linked by SGSGS to PNUTS (408-940) (UniProt P62136)
Experiment: co-IP

Protein sequences, listed by entry. Tags and fused reporters are not part of them. Lines headed by an entry give the natural chain unless they say otherwise; changes in a name come on top.
UniProt P62136: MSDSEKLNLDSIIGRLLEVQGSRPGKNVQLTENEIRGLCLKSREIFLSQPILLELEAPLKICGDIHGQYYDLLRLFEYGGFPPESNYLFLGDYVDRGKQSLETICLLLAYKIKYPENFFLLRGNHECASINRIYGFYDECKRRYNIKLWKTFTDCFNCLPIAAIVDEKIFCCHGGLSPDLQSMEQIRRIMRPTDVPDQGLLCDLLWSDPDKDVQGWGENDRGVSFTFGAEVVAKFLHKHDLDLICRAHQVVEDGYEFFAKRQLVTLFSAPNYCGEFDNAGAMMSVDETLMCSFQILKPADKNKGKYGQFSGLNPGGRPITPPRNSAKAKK
UniProt Q6UXN9: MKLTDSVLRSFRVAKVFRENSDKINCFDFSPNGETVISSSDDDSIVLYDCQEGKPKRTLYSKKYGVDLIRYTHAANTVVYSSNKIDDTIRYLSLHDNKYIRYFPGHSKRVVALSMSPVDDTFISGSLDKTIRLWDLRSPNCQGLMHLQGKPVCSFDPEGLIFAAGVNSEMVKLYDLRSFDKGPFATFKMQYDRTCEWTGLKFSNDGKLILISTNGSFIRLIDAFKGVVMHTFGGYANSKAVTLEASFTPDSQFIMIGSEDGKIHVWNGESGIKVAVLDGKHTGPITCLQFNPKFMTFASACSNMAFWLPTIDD

WDR82 (from UniProt Q6UXN9 1-313) was tested, and the binding was “binds”.

Reference: paper doi:10.1101/2024.07.12.603302
